The assay concerns the target T1, Purified MPK9‐V5‐His6 with the RVSF motif maintained (MPK9^RVSF), as used with PP1 (Arabidopsis thaliana) (UniProt Q9LV37).
T1 sequence: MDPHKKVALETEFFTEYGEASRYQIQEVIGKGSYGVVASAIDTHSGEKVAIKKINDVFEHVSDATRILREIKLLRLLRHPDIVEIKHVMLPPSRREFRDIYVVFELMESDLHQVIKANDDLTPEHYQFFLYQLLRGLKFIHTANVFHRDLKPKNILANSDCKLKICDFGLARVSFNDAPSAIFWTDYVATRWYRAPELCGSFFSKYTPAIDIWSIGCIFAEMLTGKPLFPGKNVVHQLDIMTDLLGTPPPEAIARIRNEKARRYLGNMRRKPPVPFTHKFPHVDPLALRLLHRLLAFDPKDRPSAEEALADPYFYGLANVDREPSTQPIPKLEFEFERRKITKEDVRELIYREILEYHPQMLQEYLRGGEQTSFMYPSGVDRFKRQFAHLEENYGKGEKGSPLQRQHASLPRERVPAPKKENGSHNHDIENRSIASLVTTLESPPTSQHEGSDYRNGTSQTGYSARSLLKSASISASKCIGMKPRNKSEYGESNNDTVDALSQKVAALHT
The assay can be described thus: far-Western, overlay or dot blot; MPK9^RVXF and MPK9^RASA run on SDS‐PAGE, blotted to nitrocellulose, probed with PP1 (TOPP) isoforms (2 μg/mL) for 4 h in TBS plus 5% milk powder; PP1 detected with anti‐TOPP antibody; both purified.

By UniProt entry, the sequences of proteins in these tests, tags left out.
UniProt O82733: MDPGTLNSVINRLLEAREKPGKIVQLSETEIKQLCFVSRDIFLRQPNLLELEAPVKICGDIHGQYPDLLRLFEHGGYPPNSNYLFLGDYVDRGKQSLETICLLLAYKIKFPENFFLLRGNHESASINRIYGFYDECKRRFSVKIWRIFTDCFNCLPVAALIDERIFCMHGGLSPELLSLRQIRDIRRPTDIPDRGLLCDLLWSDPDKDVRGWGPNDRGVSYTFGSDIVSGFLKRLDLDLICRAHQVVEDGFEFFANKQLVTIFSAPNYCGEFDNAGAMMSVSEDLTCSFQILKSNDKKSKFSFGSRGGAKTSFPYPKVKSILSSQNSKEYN

From paper PMC12817480, “Phospho‐Proteomics Identifies D‐Group MAP Kinases as Substrates of the Arabidopsis Tyrosine Phosphatase RLPH2” (Plant Direct, 2026) come the findings set out here.

These are yes or no findings as the source states them, for the method shown. Some results given as binding are weak or reduced against the parent protein; the word gives no strength. Sequences can lack the tags named with a protein.

As to “Arabidopsis PP1 isoform 7 (TOPP7) (from UniProt O82733 1-331) (enzyme)”, the binding result is “binds”.
